Data reported in publication PMC12040169 (PLOS Biology, 2025).
Some of the results follow.

System: T1, CTL2-GFP (C. trachomatis L2/434/Bu, GFP-expressing)
T1 construct: L2/434/Bu, GFP-expressing
Set-up: species or system HeLa; Intracellular C. trachomatis growth in HeLa cells, bulk GFP fluorescence relative to DMSO
Details: bulk GFP, single well; 28.5 h, 10 µM; inhibitor

SMILES | % of control remaining
N#Cc1c(-c2ccc(Cl)cc2)c[nH]c1N [CBK019323] | 108.935%
O=C(NC1CCN(Cn2nnc3ccccc3c2=O)CC1)C1CC1 [CBK305584] | 140.134%
CC(=O)c1ccc(NC(=O)CC2SC(=N)NC2=O)cc1 (stereo not shown) [CBK265625] | 100%
CCOc1ccc(-c2cncc(N3CCN(C(=O)c4ccco4)CC3)n2)cc1 [CBK065860] | 94.2189%
CC(=O)NCc1cccc(-c2cncc(C(=O)Nc3ccc4c(c3)OCCO4)c2)c1 [CBK161009T] | 82.5231%
O=C(NCc1ccco1)/C(=C\c1ccccc1)NC(=O)c1ccc(Br)cc1 [CBK263701] | 132.262%
CN(C)c1nc(NCc2ccccc2)nc(SCC(=O)Nc2ccccc2Cl)n1 [CBK267190] | 153.565%
Cc1cc(C2CCCN2C(=O)c2cnn3c(C)cc(C)nc23)on1 (stereo not shown) [CBK305634] | 129.855%
COc1cc(-c2ccc(N)c3ccccc23)cc(OC)c1OC [CBK084332] | 115.712%
COc1ccc(-c2cccc(N3CCN(CCN4CCCC4)CC3)n2)cc1OC [CBK037680] | 116.248%
CCC(C(=O)Nc1ccc(OC(C)=O)cc1C(=O)O)c1ccccc1 (stereo not shown) [CBK269685] | 101.765%
CCOc1ccc(CN2CCN(CCCc3ccccc3)CC2)cc1 [CBK264153G] | 100%
C=Cn1ncc(CN(C)Cc2nc3ccccc3[nH]2)c1C [CBK283170] | 104.518%
Cc1ccccc1Nc1nc(N)nc(CN2CCCC2)n1 [CBK306152] | 85.9019%
CCOc1ccccc1OCCCOc1ccc(C(=O)O)cc1 [CBK295144] | 115.947%
Nc1nc(CCC(=O)N2CCCC(c3cc(O)ncn3)C2)cs1 (stereo not shown) [CBK306976] | 123.955%
CCC(C)c1ccc(NC(C)C(=O)Nc2ccc3[nH]c(=O)[nH]c3c2)cc1 (stereo not shown) [CBK296694] | 152.414%
O=C(CCn1c(C(F)F)cc2cccnc21)NCc1ccncc1 [CBK285027] | 97.0268%
CS(=O)(=O)N(Cc1ccccc1F)c1ccccc1C(=O)O [CBK287239] | 135.215%
COc1cccc(CN(C)C2CCN(C)CC2)c1OC [CBK261532] | 109.879%
CC(=O)Nc1cccc(-c2cnc(N)c(N3CCN(CCN(C)C)CC3)n2)c1 [CBK063472] | 163.686%
COc1ccc2c(c1)nc(SCC(O)c1ccccc1)n2C (stereo not shown) [CBK262508] | 113.614%
O=C(O)CSc1nnc(-c2ccc(S(=O)(=O)N3CCCCCC3)cc2)o1 [CBK300508] | 143.359%
OCCN1CCN(c2nc(C3CCOC3)cn3ccnc23)CC1 (stereo not shown) [CBK037931] | 177.421%
Cc1nn(C)c(C)c1C(C)NS(=O)(=O)Cc1cccc(F)c1 (stereo not shown) [CBK281396] | 101.732%
OC(Cn1c(Cc2ccccc2)nc2ccccc21)Cn1c2ccccc2c2ccccc21 (stereo not shown) [CBK262570] | 100%
O=C(O)C1CCN(c2c(-c3ccccc3)c3cc(Cl)ccc3[nH]c2=O)CC1 [CBK287198] | 127.727%

SMILES | % of control remaining
N#Cc1ccc(-n2cc(-c3ccc(F)cc3F)nn2)cc1 [CBK112990] | 133.41%
CSc1nnc(CCCNC(=O)c2cccc(C#N)c2)n1C1CCCC1 [CBK305459] | 111.268%
COc1ccc(NS(=O)(=O)c2ccc(NC(=O)c3nc4nc(C)cc(C(F)F)n4n3)cc2)cc1 [CBK266123] | 140.329%
CCC(CO)Nc1cncc(-c2cccc(F)c2)n1 (stereo not shown) [CBK065752] | 97.3442%
COc1cc(Nc2nc(-c3ccco3)cn3ccnc23)cc(OC)c1OC [CBK037413] | 191.603%
CCC(=O)NCCCn1c(-c2cccnc2C)cc2cccnc21 [CBK282646] | 119.055%
CN(C(=O)Cn1cc(C(=O)NCC(C)(C)c2ccc(F)cc2)ccc1=O)c1ccccc1 [CBK285662] | 116.09%
O=c1c(Cc2ccccc2)c(O)c2cccc3c2n1CCC3 [CBK291166] | 133.473%
Cc1cc(C)nc(NS(=O)(=O)c2ccc(Nc3ccc4nonc4c3[N+](=O)[O-])cc2)n1 [CBK261444] | 34.2368%
CCCCN=C(NCCCn1cccn1)N1CCCN(C(C)=O)CC1 [CBK304273I] | 108.108%
COC(=O)c1ccc(CN2CCC(Oc3nccnc3OCc3ccc(Cl)c(Cl)c3)CC2)o1 [CBK153782] | 116.625%
CO/N=C(/C(=O)O)c1cn2cc(Br)ccc2n1 [CBK260925G] | 115.817%
CCOC(=O)N1CCN(c2cccc3[nH]c(C(=O)O)cc23)CC1 [CBK083477] | 119.232%
CC(=O)c1nnn(-c2cc(Cl)ccc2Cl)c1C [CBK085973] | 84.1204%
CCNC(=O)Nc1nc2cccnc2cc1-c1ccccc1 [CBK081239] | 121.627%
O=C(O)CCC(=O)Nc1ccc(NC(=O)c2ccccc2)c(Cl)c1 [CBK263478] | 100%
CSC(=S)n1c(C)nc2ccccc21 [CBK018539] | 106.12%
O=[N+]([O-])c1cc(F)ccc1Oc1cccc2c1CCCC2 [CBK002559] | 98.7259%
CN1CCN(c2nc(NCCNc3ccc([N+](=O)[O-])cc3)c3ccccc3n2)CC1 [CBK266949] | 81.2927%
COC(=O)C1=C(C)OC(n2cccc2)=C(C#N)C1c1cc(OC)c(O)c(OC)c1 (stereo not shown) [CBK293994] | 152.248%
CCCn1c(=S)[nH]c2cc(C(=O)NCCc3ccc(Cl)cc3)ccc2c1=O [CBK294445] | 135.701%
COc1ccc2c(c1)C1(CC(=O)N(Cc3ccccc3)C1=O)C(=O)N2CCCN1C(=O)c2ccccc2C1=O (stereo not shown) [CBK075501] | 173.118%
N[C@H]1C[C@H](c2nnc(Cn3ncc(N4CCCC4)cc3=O)n2C2CC2)C1 [CBK307039] | 98.2257%
CC(C(=O)Nc1ccc2oc(-c3ccccc3)nc2c1)(c1ccccc1)c1ccccc1 [CBK263928] | 130.449%
Cn1c(CCNC(=O)c2cccs2)nc2cc([N+](=O)[O-])ccc21 [CBK268511] | 145.189%
CC1(C)Cc2c(cnn2-c2ccccc2)C(NS(=O)(=O)C2CC2)C1 (stereo not shown) [CBK307351] | 124.139%
Cc1cc2c(o1)c1cnn(CC(=O)N3CCC(C)CC3)c(=O)c1n2C [CBK284236] | 134.554%

Exported tab-delimited: entries from further up.
SMILES	% of control remaining
COc1ccc(NS(=O)(=O)c2ccc(NC(=O)c3nc4nc(C)cc(C(F)F)n4n3)cc2)cc1 [CBK266123]	140.329%
CCC(CO)Nc1cncc(-c2cccc(F)c2)n1 (stereo not shown) [CBK065752]	97.3442%
COc1cc(Nc2nc(-c3ccco3)cn3ccnc23)cc(OC)c1OC [CBK037413]	191.603%

The results go on.

SMILES | % of control remaining
OCCNc1nc(Nc2ccc(Br)cc2)nc2ccccc12 [CBK266724C] | 12.0496%
COC(=O)N1CCC(C(=O)NC(c2ccccc2)c2ncccc2C)CC1 (stereo not shown) [CBK059885] | 88.7671%
O=C(NCCc1ccccc1)c1c(NC(=O)C2COc3ccccc3O2)sc2c1CCCC2 (stereo not shown) [CBK265522] | 100%
O=C(c1csc2c1CCCC2)N1CCC(O)(c2ccccn2)CC1 [CBK282397] | 98.4441%
CCCC(=O)Nc1ccccc1NC(=O)c1cccc([N+](=O)[O-])c1C [CBK267398] | 132.181%
CCN1CCN(Cc2cc(Cl)ccc2OCCCn2ccnc2)CC1 [CBK306990] | 124.92%
COc1ccc2c(c1)CCC(c1ccccc1)=C2c1ccc(OCC(O)CN)cc1 (stereo not shown) [CBK015723C] | 23.3131%
COc1cc2c(cc1NS(=O)(=O)N1CCCCC1)oc1ccccc12 [CBK268355] | 143.381%
Cc1cc(C(=O)NCCCN(C)C)ccc1[N+](=O)[O-] [CBK262467] | 105.393%
O=C(C1CN(C(=O)Cn2ncc(=O)c3ccccc32)c2ccccc2O1)N1CCCCC1 (stereo not shown) [CBK297115] | 130.1%
O=[N+]([O-])c1ccccc1S(=O)(=O)N1CCN(S(=O)(=O)Cc2ccccc2)CC1 [CBK264230] | 126.702%
COc1ccc(OC)c(NC(=O)c2cc(=O)[nH]c3ccccc23)c1 [CBK297521] | 127.488%
COc1ccccc1CC(C)NC(=O)c1cc(C2CC2)nn1C (stereo not shown) [CBK283290] | 104.17%
N#Cc1cccnc1SC(C(=O)O)c1ccccc1 (stereo not shown) [CBK286614] | 101.662%
COc1ccc(-c2nnc(S)n2/N=C\c2ccc(C(=O)O)cc2)cc1 [CBK264419] | 100%
Cc1cc(NC(=O)c2sc3nc4c(cc3c2N)N2CCC4CC2)no1 [CBK270217] | 116.265%
COc1ccc(CCC(=O)N2CCC(c3cccc(Cc4cccc(F)c4)n3)CC2)cc1 [CBK286212] | 100.001%
Cc1csc(C(Cc2ccsc2)NC(=O)c2cnn(C)c2C)n1 (stereo not shown) [CBK285148] | 112.893%
O=C(NCc1cn2ccccc2n1)c1ccc(C2SCCS2)cc1 [CBK295167] | 108.303%
CC(C)N1C(=O)[C@@H]2CN(C(=O)C3CCCC3)CCN2C1=O [CBK289612] | 108.315%
COc1cc(NC(=O)c2cc([N+](=O)[O-])ccc2N2CCOCC2)ccc1-c1cc2ccccc2oc1=O [CBK269128] | 151.431%
CCOC(=O)c1[nH]c2ccccc2c1NC(=O)Cc1c(Cl)cccc1Cl [CBK160132] | 117.092%
Cc1nnc(-c2cc(CCC(C)C)n(-c3cccc(C(=O)N4CCCCC4)c3)n2)o1 [CBK114689] | 110.54%
O=C(O)COCC(=O)N1CCN(C(c2ccccc2)c2ccccc2)CC1 [CBK232579] | 135.311%
COc1cc(Nc2cc(C)nc3ncnn23)ccc1N1CCCC1=O [CBK297725] | 155.449%

Arranged by molecular weight (descending): four of the compounds above.
SMILES | % of control remaining
CCCCN=C(NCCCn1cccn1)N1CCCN(C(C)=O)CC1 [CBK304273I] | 108.108%
Cc1csc(C(Cc2ccsc2)NC(=O)c2cnn(C)c2C)n1 (stereo not shown) [CBK285148] | 112.893%
Cc1cc2c(o1)c1cnn(CC(=O)N3CCC(C)CC3)c(=O)c1n2C [CBK284236] | 134.554%
OCCN1CCN(c2nc(C3CCOC3)cn3ccnc23)CC1 (stereo not shown) [CBK037931] | 177.421%
